Assay results from PMC8513853.
No constants are given. Whether binding was seen depends on the method and setting. Binding seen in cells or lysates may run through a third protein. These calls come from enrichment with a bait or labelling near it, and not all partners need be listed. For part of these data: Where a sequence is shown, tags or fusion partners need not be part of it.

How the values were obtained:
Assay in all cases: proximity labelling
[1] = target: SARS-CoV-2 ORF6, HA-BASU fusion (SARS-CoV-2) (UniProt P0DTC6)
[2] = target: SARS-CoV-2 ORF9b, HA-BASU fusion (SARS-CoV-2), P0DTD2; details: remark: other sources report otherwise
[3] = target: T1, SARS-CoV-2 ORF6, HA-BASU fusion (SARS-CoV-2), P0DTC6; details: remark: other sources report otherwise
T1 chain: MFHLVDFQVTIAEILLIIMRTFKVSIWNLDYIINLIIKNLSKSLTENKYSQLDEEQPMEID

B1: Rae1 (protein, UniProt P78406 1-368)
chain: MSLFGTTSGFGTSGTSMFGSATTDNHNPMKDIEVTSSPDDSIGCLSFSPPTLPGNFLIAGSWANDVRCWEVQDSGQTIPKAQQMHTGPVLDVCWSDDGSKVFTASCDKTAKMWDLSSNQAIQIAQHDAPVKTIHWIKAPNYSCVMTGSWDKTLKFWDTRSSNPMMVLQLPERCYCADVIYPMAVVATAERGLIVYQLENQPSEFRRIESPLKHQHRCVAIFKDKQNKPTGFALGSIEGRVAIHYINPPNPAKDNFTFKCHRSNGTNTSAPQDIYAVNGIAFHPVHGTLATVGSDGRFSFWDKDARTKLKTSEQLDQPISACCFNHNGNIFAYASSYDWSKGHEFYNPQKKNYIFLRNAAEELKPRNKK
binding [1]: binds

B2: Mitochondrial Activation of Viral Signaling (MAVS), Q7Z434 1-540 (protein)
chain: MPFAEDKTYKYICRNFSNFCNVDVVEILPYLPCLTARDQDRLRATCTLSGNRDTLWHLFNTLQRRPGWVEYFIAALRGCELVDLADEVASVYQSYQPRTSDRPPDPLEPPSLPAERPGPPTPAAAHSIPYNSCREKEPSYPMPVQETQAPESPGENSEQALQTLSPRAIPRNPDGGPLESSSDLAALSPLTSSGHQEQDTELGSTHTAGATSSLTPSRGPVSPSVSFQPLARSTPRASRLPGPTGSVVSTGTSFSSSSPGLASAGAAEGKQGAESDQAEPIICSSGAEAPANSLPSKVPTTLMPVNTVALKVPANPASVSTVPSKLPTSSKPPGAVPSNALTNPAPSKLPINSTRAGMVPSKVPTSMVLTKVSASTVPTDGSSRNEETPAAPTPAGATGGSSAWLDSSSENRGLGSELSKPGVLASQVDSPFSGCFEDLAISASTSLGMGPCHGPEENEYKSEGTFGIHVAENPSIQLLEGNPGPPADPDGGPRPQADRKFQEREVPCHRPSPGALWLQVAVTGVLVVTLLVVLYRRRLH
binding [2]: binds

B3: Nup98, P52948 1-880 (protein)
chain: MFNKSFGTPFGGGTGGFGTTSTFGQNTGFGTTSGGAFGTSAFGSSNNTGGLFGNSQTKPGGLFGTSSFSQPATSTSTGFGFGTSTGTANTLFGTASTGTSLFSSQNNAFAQNKPTGFGNFGTSTSSGGLFGTTNTTSNPFGSTSGSLFGPSSFTAAPTGTTIKFNPPTGTDTMVKAGVSTNISTKHQCITAMKEYESKSLEELRLEDYQANRKGPQNQVGAGTTTGLFGSSPATSSATGLFSSSTTNSGFAYGQNKTAFGTSTTGFGTNPGGLFGQQNQQTTSLFSKPFGQATTTQNTGFSFGNTSTIGQPSTNTMGLFGVTQASQPGGLFGTATNTSTGTAFGTGTGLFGQTNTGFGAVGSTLFGNNKLTTFGSSTTSAPSFGTTSGGLFGNKPTLTLGTNTNTSNFGFGTNTSGNSIFGSKPAPGTLGTGLGAGFGTALGAGQASLFGNNQPKIGGPLGTGAFGAPGFNTTTATLGFGAPQAPVALTDPNASAAQQAVLQQHINSLTYSPFGDSPLFRNPMSDPKKKEERLKPTNPAAQKALTTPTHYKLTPRPATRVRPKALQTTGTAKSHLFDGLDDDEPSLANGAFMPKKSIKKLVLKNLNNSNLFSPVNRDSENLASPSEYPENGERFSFLSKPVDENHQQDGDEDSLVSHFYTNPIAKPIPQTPESAGNKHSNSNSVDDTIVALNMRAALRNGLEGSSEETSFHDESLQDDREEIENNSYHMHPAGIILTKVGYYTIPSMDDLAKITNEKGECIVSDFTIGRKGYGSIYFEGDVNLTNLNLDDIVHIRRKEVVVYLDDNQKPPVGEGLNRKAEVTLDGVWPTDKTSRCLIKSPDRLADINYEGRLEAVSRKQGAQFKEYRPETGSWVFKVSHF
binding [3]: binds
